Measured values taken from PubChem BioAssay AID493014 (National Center for Advancing Translational Sciences (NCATS), 2011).
The whole screen tested about 340,000 compounds, of which about 170 (0.05%) were called active. Inconclusive means that the source gave no clear call. Such entries were picked first, then a sample of the others. Calls come from the whole dose curve; as a rule, active = well fitted inhibition curve with a large enough effect in the signal ratio, with a control signal flat (not every such curve was filed as active); inconclusive = small, poorly fitted or top-dose-only effect, or effect the other way, or a change in a side signal; inactive = flat fitted curve, though single readings scatter; the % refers to the signal ratio. A potency beside an inconclusive call is a rough fit, not a confirmed value.

test: qHTS Assay to Find Inhibitors of Chronic Active B-Cell Receptor Signaling; details: ABC-DLBCL IkBa-CBG/CBR reporter, luminescence ratio (green luciferase fused to IkBa over red control in TMD8 lymphoma cells), 4 h; activity change, negative = inhibition: at 46.1 µM (top of the series);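 for activity change, negative = inhibition: plate controls were basal doxycycline-induced cells for no effect and cells given 10 µM MG132 for full effect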
Procedure, shortened: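 Doxycycline induced both beetle luciferases in TMD8 lymphoma cells; IKK-driven degradation limits the IkappaBalpha-fused green signal, while red luminescence normalises for cell number and nonspecific effects. Compounds tested up to 46 uM, 4 hrs.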
Potency is the fitted concentration of half-maximal effect.

| Compound | activity change, negative = inhibition | Potency |
| --- | --- | --- |
| COc1ccc(S(=O)(=O)Nc2c(C(=O)O)[nH]c3ccc(OC)cc23)c(OC)c1 | inconclusive: 0.359% |  |
| Cc1nc(-c2ccc(S(=O)(=O)N3CCN(c4ccccc4)CC3)cc2)co1 | inactive: 5.67% |  |
| COc1ccccc1S(=O)(=O)Nc1cccc(-c2nnc3n2CCCCC3)c1 | inconclusive: -1.84% |  |
| Cc1cccc(NC(=O)C2(c3ccc([N+](=O)[O-])cc3)CCCC2)c1 |  | inconclusive: 31.6 µM [activator, partial curve, poor fit] |
| COc1cc2c(cc1NS(=O)(=O)N1CCCCC1)oc1ccccc12 | inconclusive: 4.59% |  |
| COc1ccccc1-c1nnc2n1N=C(c1ccc(O)c(O)c1)CS2 | inconclusive: 488% [cytotoxic] |  |
| Cc1nnc(Nc2ccc(C(=O)N3CCOCC3)cc2)c2ccccc12 | inconclusive: 6.46% |  |
| O=C(Cc1ccccc1)NN1C(=O)/C(=C/c2ccc(C(=O)O)cc2)SC1=S |  | inconclusive: 22.4 µM [falling, partial curve, poor fit] |
| COc1ccc(C(=O)CNc2ccccc2Br)cc1 | inconclusive: -12.9% |  |
| Cc1ccc(NC(=S)N/N=C/c2c(Cl)cccc2Cl)c(C)c1 | inconclusive: 5.65% |  |
| Cc1cccc(C(=O)NC(=S)NNC(=O)COc2ccc(Cl)cc2)c1 | inconclusive: 0.162% |  |
| COc1ccccc1NC(=S)NNC(=O)c1ccc(O)cc1 |  | inconclusive: 20.6 µM [falling, partial curve] |
| COc1ccc(NC(=O)c2cc3ccccc3[nH]2)cc1 |  | inconclusive: 15.8 µM [falling, partial curve] |
| Cc1ccc(C(=O)Nc2nnc(SCC(=O)N3CCCc4ccccc43)s2)cc1 | inactive: 12.7% |  |
| COc1ccc(CN(Cc2cc3cccc(C)c3n3nnnc23)C(=O)N2CCOCC2)cc1 | inactive: 5.27% |  |
| CN(C)C(=O)c1c(NC(=O)c2ccccc2)sc2c1CCC2 |  | inconclusive: 35.5 µM [rising, single point] |
| COc1ccc(N(CC(O)CN2CCCCC2)S(=O)(=O)c2ccc(C)cc2)cc1 (centres undefined) | inconclusive: 11.6% |  |
| O=C(CCCCl)Nc1nc(-c2ccc3c(c2)OCCO3)cs1 | inactive: -17.1% |  |
| CNC(=S)NCc1ccc2[nH]c(C)cc2c1 | inactive: 4.2% |  |
| Cc1cccc2c1-c1sc(C(=O)NCCCN3CCC(C)CC3)cc1CO2 | inconclusive: -14.2% |  |
| CCOCCCn1c(SCc2nc3ccccc3s2)nc2ccccc2c1=O | inconclusive: 8.61% |  |
| Cc1ccc[n+](CC(=O)/C=C2\N(C)c3ccccc3C2(C)C)c1 | inactive: -0.81% |  |
| COc1ccccc1C(=O)Nc1nnc(S(=O)(=O)N2CCCCC2)s1 | inconclusive: 10% |  |
| O=C(NCC1CCCO1)c1cccc(N2C(=O)C3C4C=CC(C4)C3C2=O)c1 (centres undefined) |  | inconclusive: 6.51 µM [falling, single point] |
| CCCSc1nc(C)nc2c1c(=O)n(C)c(=O)n2C | inconclusive: 10.6% |  |
| O=C(CSc1nnc(-c2ccc(F)cc2)c2ccccc12)Nc1cccc(Cl)c1 | inconclusive: -9.4% |  |
| COc1ccc(/C=N/NC(=O)Cc2cccs2)cc1 |  | inconclusive: 7.94 µM [falling, partial curve, poor fit] |

| Compound | activity change, negative = inhibition | Potency |
| --- | --- | --- |
| Cc1nc2cc(NC(=O)Nc3cccc([N+](=O)[O-])c3)ccc2n1C | inactive: 2.96% |  |
| CC(=O)c1ccc(N2CCN(C(=O)C3CCN(C(=O)Nc4ccccc4)CC3)CC2)cc1 | inactive: -0.321% |  |
| CN1CCc2c(sc(NC(=O)C3CCCCC3)c2C(N)=O)C1 |  | inconclusive: 25.1 µM [falling, single point] |
| CC(=O)c1sc(NC(=O)c2ccccc2F)nc1C |  | inconclusive: 23.1 µM [falling, single point] |
| COC(=O)CCC(=O)OC1(C)C(=O)C2=CN(CCN3CCOCC3)C(c3ccc(OC)cc3)=CC2=C(Br)C1=O (centres undefined) | inconclusive: 2.14% |  |
| COc1ccc(Cl)cc1NC(=O)c1c(NCc2cccnc2)sc2c1CCCC2 | inconclusive: -1.53% |  |
| Cc1n[nH]c(=S)n1/N=C/c1ccccc1OCc1ccc(Cl)cc1Cl | inactive: 9.11% |  |
| S=C(Nc1ccc(Br)cc1Cl)NC1CCN(Cc2ccccc2)CC1 | inconclusive: -25.6% |  |
| Cn1cc(C(=O)c2ccc(Cl)cc2Cl)cc1C=O | inconclusive: -21.7% |  |
| CC1=C(C#N)c2nc(N)c(C#N)c(C)c2/C1=C\c1ccc(-c2ccccc2C(=O)O)o1 | inactive: 6.17% |  |
| N#C/C(=C(/O)c1ccc2c(c1)OCO2)c1nc2cc(C(F)(F)F)ccc2s1 |  | inconclusive: 6.31 µM [falling, partial curve] |
| CCN(Cc1ccccc1)C(=O)c1cccc(OC2CCN(C(=O)C3CC3)CC2)c1 |  | inconclusive: 8.91 µM [falling, partial curve, poor fit] |
| COc1ccccc1OCCn1c(C)c(C=O)c2ccccc21 | inconclusive: -18.8% |  |
| CCc1ccc(S(=O)(=O)Nc2cc3c(cc2C)n(C)c(=O)n3C)cc1 |  | inconclusive: 11.2 µM [falling, partial curve, poor fit] |
| COc1ccc(C)cc1NC(=O)CN(C)S(=O)(=O)c1ccc2c(c1)CC(C)N2C(C)=O (centres undefined) | inactive: -6.95% |  |
| CCC(=O)Nc1ccc(Cl)c(NC(=S)NC(C)=O)c1 | inactive: -2.67% |  |
| CCOc1cc(C(=O)N/N=C\c2cn(CC)nc2C)cc(OCC)c1OCC | inconclusive: -19.4% |  |
| CCn1c2ccccc2c2nc3cc(C(=O)O)ccc3nc21 |  | inconclusive: 31.6 µM [falling, partial curve, poor fit] |
| CCN(CC)CCNC(=O)Cn1cnc2sc(C)c(S(=O)(=O)N3CCN(c4ccccc4OC)CC3)c2c1=O | inconclusive: 8.1% |  |
| O=C(C[n+]1ccccc1)N/N=C/c1ccc(C(=O)O)cc1 | inconclusive: 5.86% |  |
| O=C(CSc1nc2ccccc2c(=O)n1-c1ccccc1)c1c[nH]c2ccccc12 | inconclusive: -10.3% |  |
| CCN(CC)CCN1C(=O)c2oc3ccccc3c(=O)c2C1c1ccc(F)cc1 (centres undefined) | inconclusive: 14% |  |
| N#Cc1ccc(NC(=O)COC(=O)c2cccnc2Cl)cc1 | inactive: 0.662% |  |
| Cc1cccc(Oc2ccccc2NC(=O)CSCC(=O)Nc2cc(C)on2)c1 | inactive: 1.27% |  |
| O=C(CSc1nc2ccccc2o1)c1cc2ccccc2oc1=O |  | inconclusive: 18.4 µM [falling, partial curve] |
| CNc1oc(-c2ccc(OCc3ccccc3)cc2)nc1C#N | inconclusive: 25.5% |  |
| CCOC(=O)N1CCc2c(sc(NCc3ccc(N(C)C)cc3)c2C(=O)Nc2ccccc2OCC)C1 | inactive: -2.82% |  |

Filtered by structure, those above with four or more nitrogen atoms (14)

| Compound | activity change, negative = inhibition | Potency |
| --- | --- | --- |
| COc1ccccc1S(=O)(=O)Nc1cccc(-c2nnc3n2CCCCC3)c1 | inconclusive: -1.84% |  |
| COc1ccccc1-c1nnc2n1N=C(c1ccc(O)c(O)c1)CS2 | inconclusive: 488% [cytotoxic] |  |
| Cc1nnc(Nc2ccc(C(=O)N3CCOCC3)cc2)c2ccccc12 | inconclusive: 6.46% |  |
| Cc1ccc(C(=O)Nc2nnc(SCC(=O)N3CCCc4ccccc43)s2)cc1 | inactive: 12.7% |  |
| COc1ccc(CN(Cc2cc3cccc(C)c3n3nnnc23)C(=O)N2CCOCC2)cc1 | inactive: 5.27% |  |
| COc1ccccc1C(=O)Nc1nnc(S(=O)(=O)N2CCCCC2)s1 | inconclusive: 10% |  |
| CCCSc1nc(C)nc2c1c(=O)n(C)c(=O)n2C | inconclusive: 10.6% |  |
| Cc1nc2cc(NC(=O)Nc3cccc([N+](=O)[O-])c3)ccc2n1C | inactive: 2.96% |  |
| CC(=O)c1ccc(N2CCN(C(=O)C3CCN(C(=O)Nc4ccccc4)CC3)CC2)cc1 | inactive: -0.321% |  |
| Cc1n[nH]c(=S)n1/N=C/c1ccccc1OCc1ccc(Cl)cc1Cl | inactive: 9.11% |  |
| CC1=C(C#N)c2nc(N)c(C#N)c(C)c2/C1=C\c1ccc(-c2ccccc2C(=O)O)o1 | inactive: 6.17% |  |
| CCOc1cc(C(=O)N/N=C\c2cn(CC)nc2C)cc(OCC)c1OCC | inconclusive: -19.4% |  |
| CCN(CC)CCNC(=O)Cn1cnc2sc(C)c(S(=O)(=O)N3CCN(c4ccccc4OC)CC3)c2c1=O | inconclusive: 8.1% |  |
| CCOC(=O)N1CCc2c(sc(NCc3ccc(N(C)C)cc3)c2C(=O)Nc2ccccc2OCC)C1 | inactive: -2.82% |  |

More entries

| Compound | activity change, negative = inhibition | Potency |
| --- | --- | --- |
| Nc1ccc2nc(-c3ccc(Cl)cc3)[nH]c2c1 | inactive: 28.9% |  |
| CCOc1ccc(N(CC(=O)NCc2ccc(C)cc2)S(=O)(=O)c2c(C)[nH]c(=O)[nH]c2=O)cc1 | inconclusive: 0.681% |  |
| CCOc1ccc2[nH]c(=O)c(C(c3nnnn3CCOC)N3CCOCC3)cc2c1 (centres undefined) | inconclusive: -1.48% |  |
| FC(F)(F)c1cnc(Oc2ccccc2-c2nnc(-c3ccc(Cl)cc3)o2)c(Cl)c1 |  | inconclusive: 5.17 µM [rising, full curve, poor fit] |
| CCN(CC)S(=O)(=O)c1ccc(OCC(=O)NC(=O)c2ccccc2OC)c([N+](=O)[O-])c1 | inconclusive: -0.549% |  |
| CCOc1cc(CNCCN2CCOCC2)ccc1OCc1ccccc1Cl | inconclusive: -3.81% |  |
| CC(C)n1cc(CN2CCCC(C(=O)Nc3cccc(-c4cc5ccccc5[nH]4)c3)C2)cn1 (centres undefined) |  | inconclusive: 35.5 µM [falling, single point] |
| COc1ccccc1NCC(O)Cn1c2ccccc2c2ccccc21 (centres undefined) | inconclusive: -17.1% |  |
| O=C(/C=C/c1ccc(Br)cc1)NC(=S)NNC(=O)c1ccco1 |  | inconclusive: 0.731 µM [rising, partial curve, poor fit] |
| Cc1ccsc1CNn1cnnc1SCc1ccc(Cl)cc1 | inconclusive: 10.4% |  |
| COc1ccccc1N1CCN(S(=O)(=O)c2c(C)ccc3nsnc23)CC1 | inconclusive: 9.44% |  |
| O=C(Nc1cccc(S(=O)(=O)N2CCCCCC2)c1)c1cc(=O)c2ccccc2o1 | inconclusive: -13.9% |  |
| O=C(COC(=O)C1COc2ccccc2O1)Nc1ccc2c(c1)CCC2 (centres undefined) | inconclusive: -2.36% |  |
| CCOc1ccc(CSC(=N)N)cc1[N+](=O)[O-] | inconclusive: -18% |  |
| Cc1ccc(C2/C(=C(/O)c3cnn(-c4ccccc4)c3C)C(=O)C(=O)N2CCCN2CCOCC2)o1 (centres undefined) |  | inconclusive: 11.2 µM [rising, partial curve, poor fit] |
| Cc1sc2ncnc(SCC(=O)NC(=O)c3cccn3C)c2c1C | inconclusive: 0.182% |  |
| CCOC(=O)C1C(=O)C=C(c2ccc(C)cc2)CC1c1cccc([N+](=O)[O-])c1 (centres undefined) | inconclusive: 6.53% |  |
| c1ccc(CSc2nc3ccccc3[nH]2)cc1 | inconclusive: 6.57% |  |
| C=CC[C@@H](CC(=O)N[C@H](CO)Cc1ccccc1)C(=O)N[C@H](COC(=O)[C@@H](CC=C)Cc1ccc(F)cc1)C(C)(C)C | inconclusive: -1.4% |  |
| O=C(Nc1ccc2c(c1)OCCO2)c1ccccn1 |  | inconclusive: 31.6 µM [rising, single point] |
| COC(=O)c1ccc(Oc2nc3c(c(=O)n(C)c(=O)n3C)n2CCC(C)C)cc1 | inconclusive: -0.705% |  |
| CCc1cccc2c(C(=O)CN3C(=O)N(C)C4(CCCCC4)C3=O)c[nH]c12 | inconclusive: 6.92% |  |
| CCSC1=N/C(=C\c2ccc(C(=O)O)cc2)C(=O)S1 |  | inconclusive: 20 µM [falling, partial curve] |
| CCOC(=O)CNC(=O)CSc1nnc(-c2c[nH]c3ccccc23)n1CC | inconclusive: 6.09% |  |
| O=C(CCN1CCN(C(c2ccccc2)c2ccccc2)CC1)N/N=C/c1ccc(O)cc1 | inactive: -9.42% |  |

Three compounds out of the list, sorted by molecular weight, ascending.

| Compound | activity change, negative = inhibition | Potency |
| --- | --- | --- |
| CCOc1ccc2[nH]c(=O)c(C(c3nnnn3CCOC)N3CCOCC3)cc2c1 (centres undefined) | inconclusive: -1.48% |  |
| CC(C)n1cc(CN2CCCC(C(=O)Nc3cccc(-c4cc5ccccc5[nH]4)c3)C2)cn1 (centres undefined) |  | inconclusive: 35.5 µM [falling, single point] |
| CCN(CC)S(=O)(=O)c1ccc(OCC(=O)NC(=O)c2ccccc2OC)c([N+](=O)[O-])c1 | inconclusive: -0.549% |  |
